# Source: paper PMC7819943, “Rice protein-binding microarrays: a tool to detect cis-acting elements near promoter regions in rice”
# Sequences of proteins named here, by UniProt entry; tags and fusion partners are left off.
# UniProt Q0JBA9, entry or part of it: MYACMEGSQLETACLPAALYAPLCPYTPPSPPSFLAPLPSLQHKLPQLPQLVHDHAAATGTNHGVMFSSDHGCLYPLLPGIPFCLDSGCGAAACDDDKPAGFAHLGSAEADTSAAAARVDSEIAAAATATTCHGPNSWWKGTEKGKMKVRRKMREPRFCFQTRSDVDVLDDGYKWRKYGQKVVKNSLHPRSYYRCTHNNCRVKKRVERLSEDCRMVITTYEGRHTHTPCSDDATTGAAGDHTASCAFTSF
# The list shows a part of the results.
# Molecular target: OsWRKY34 (Oryza sativa, UniProt Q0JBA9 1-250)
# Test: protein-binding microarray (RPBM); PBS, 2% BSA, 51.3 ng/ul salmon testes DNA, 50 uM zinc acetate, 200 nM TF, 25 C, 1 h; high values mean tight binding
# Details: protein: recombinant; tags: N-terminal polyhistidine and DsRed monomer fusion (pET32a); label: CyDye5-dUTP incorporated in the synthesized complementary strand; 3' TTTTT single-stranded linker to array surface; dsDNA, one strand shown
# Method in brief: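 Binding signal here means per-feature fluorescence intensity in arbitrary units. The values were read on an Axon 4000B scanner after a custom Agilent array, double-stranded by primer extension with Cy5-dUTP, was incubated with 200 nM protein at 25 °C for 1 h in PBS with 2% BSA, salmon testes DNA and 50 µM zinc acetate, then washed. The proteins were transcription factors with an N-terminal polyhistidine tag and DsRed, expressed in E. coli BL21-CodonPlus and purified on Ni–NTA.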
row,Sequence,binding signal
1,TTATAACATGTCATTAATAAAGGGCATTATGCAACTAATACGGAGTCACCTAGTGCAG,64200 fluorescence intensity (a.u.)
2,GATAGCGATGAGAGTGGGTGTGGGGTGGCGACGACGGATTCGGAGTCACCTAGTGCAG,10100 fluorescence intensity (a.u.)
3,CGTCTCCAAGCTCCGGACCCAGCTGGGCGTCATCCACCCGCGGAGTCACCTAGTGCAG,9510 fluorescence intensity (a.u.)
4,ACCAAACACAGAATCATCATCCATCGATCCAAGTAGCTAGCGGAGTCACCTAGTGCAG,9540 fluorescence intensity (a.u.)
5,AATATCACACTGCCCGCGCCCCTGTTCGCAGCGCATGTGACGGAGTCACCTAGTGCAG,8380 fluorescence intensity (a.u.)
6,ACTACAATCCTCTTCCGTCGAAGAATTTCATAAGTCATAACGGAGTCACCTAGTGCAG,8790 fluorescence intensity (a.u.)
7,GACCTAGTCAAATTAGCCACGTAGATGTCATGTCGGTCAACGGAGTCACCTAGTGCAG,8290 fluorescence intensity (a.u.)
8,AGCTATCCAACCTAACCCATCGCACGTCCTTTTTCCTCGCCGGAGTCACCTAGTGCAG,9030 fluorescence intensity (a.u.)
9,TCGGTTGAACCCCGTCGATCTCTATCCCTCTCTTACTCTCCGGAGTCACCTAGTGCAG,8060 fluorescence intensity (a.u.)
10,TCTGCTTTGGAGCTTGTCGCGGCCTGTTCTTTTTCTTTACCGGAGTCACCTAGTGCAG,11000 fluorescence intensity (a.u.)
11,GCTCATCCGCTTGCCTCGTCGCTGCTGCTGCTGCTGATCCCGGAGTCACCTAGTGCAG,10100 fluorescence intensity (a.u.)
12,CTTTTTTATATGCATCCTTATAAACATGTATTTTTTTTATCGGAGTCACCTAGTGCAG,9540 fluorescence intensity (a.u.)
13,AAACCATTTTTTCCACCATATTAATTAATTCACACTGTCACGGAGTCACCTAGTGCAG,9610 fluorescence intensity (a.u.)
14,GTCAGAGGGTGGTTACAAGTCCACACACATGTTGCTTTCCCGGAGTCACCTAGTGCAG,9050 fluorescence intensity (a.u.)
15,CCATGTATAATATGTGATGTTTTTCTCCGTGATCTAATCTCGGAGTCACCTAGTGCAG,8620 fluorescence intensity (a.u.)
16,TTACTGGGAGTCTGATATACATTTCTTTCTTGTCTTCCTGCGGAGTCACCTAGTGCAG,11400 fluorescence intensity (a.u.)
17,TTTTTGCATTCGGGCCCCTTGCCGCCGGGTTTTCCTAAAACGGAGTCACCTAGTGCAG,8220 fluorescence intensity (a.u.)
18,ATGGTGGTGGAGGATGATGTCGGCGAGGTGGTCAACGACGCGGAGTCACCTAGTGCAG,11000 fluorescence intensity (a.u.)
19,GCATCGCCCTATGGTTTATTTTGGCTAGCACTAAGTATATCGGAGTCACCTAGTGCAG,9640 fluorescence intensity (a.u.)
20,TCCAACTCCGGCAGGGAGCATACGGGTTAGGGTTTGGGGTCGGAGTCACCTAGTGCAG,8380 fluorescence intensity (a.u.)
21,CCCACACACCCCAGGCCCCACCAACCCACCGGCTGCCGCCCGGAGTCACCTAGTGCAG,9580 fluorescence intensity (a.u.)
22,ACACACCTTGCCATCTAATTATTACTTCTTCAATCTTAAACGGAGTCACCTAGTGCAG,10500 fluorescence intensity (a.u.)
23,GGGGAGGTGGAGATGAGATGAGGCGGCGGGGTGGCGGTGGCGGAGTCACCTAGTGCAG,13700 fluorescence intensity (a.u.)

# 2 entries from above, tab-delimited:
row	Sequence	binding signal
1	TTATAACATGTCATTAATAAAGGGCATTATGCAACTAATACGGAGTCACCTAGTGCAG	64200 fluorescence intensity (a.u.)
23	GGGGAGGTGGAGATGAGATGAGGCGGCGGGGTGGCGGTGGCGGAGTCACCTAGTGCAG	13700 fluorescence intensity (a.u.)
